Data as given in US20240025959A1.
These are yes or no findings as the source states them, for the method shown. In cells and extracts the contact can be indirect. Some binding calls cover weakened binding; strength is not graded here.

Protein sequences, listed by entry. Tags and fused reporters are not part of them. Residues count along the entry.
UniProt Q13148: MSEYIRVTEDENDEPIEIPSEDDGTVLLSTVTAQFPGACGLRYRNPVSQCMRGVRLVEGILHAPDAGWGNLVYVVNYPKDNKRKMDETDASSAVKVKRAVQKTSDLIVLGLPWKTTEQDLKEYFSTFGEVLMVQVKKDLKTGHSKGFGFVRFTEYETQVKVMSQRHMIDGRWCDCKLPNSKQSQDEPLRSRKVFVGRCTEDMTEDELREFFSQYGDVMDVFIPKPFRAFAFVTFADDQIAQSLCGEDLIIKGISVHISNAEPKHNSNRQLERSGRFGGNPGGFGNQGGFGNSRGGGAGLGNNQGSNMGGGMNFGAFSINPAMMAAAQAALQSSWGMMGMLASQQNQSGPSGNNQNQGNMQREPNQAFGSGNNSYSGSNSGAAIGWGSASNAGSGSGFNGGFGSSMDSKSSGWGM
UniProt Q99497: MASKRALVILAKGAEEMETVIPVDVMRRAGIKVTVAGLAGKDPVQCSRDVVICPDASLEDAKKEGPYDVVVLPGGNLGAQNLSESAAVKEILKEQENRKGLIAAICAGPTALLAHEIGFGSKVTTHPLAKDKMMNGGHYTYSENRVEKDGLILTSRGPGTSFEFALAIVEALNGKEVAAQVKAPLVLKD
UniProt Q9BXM7: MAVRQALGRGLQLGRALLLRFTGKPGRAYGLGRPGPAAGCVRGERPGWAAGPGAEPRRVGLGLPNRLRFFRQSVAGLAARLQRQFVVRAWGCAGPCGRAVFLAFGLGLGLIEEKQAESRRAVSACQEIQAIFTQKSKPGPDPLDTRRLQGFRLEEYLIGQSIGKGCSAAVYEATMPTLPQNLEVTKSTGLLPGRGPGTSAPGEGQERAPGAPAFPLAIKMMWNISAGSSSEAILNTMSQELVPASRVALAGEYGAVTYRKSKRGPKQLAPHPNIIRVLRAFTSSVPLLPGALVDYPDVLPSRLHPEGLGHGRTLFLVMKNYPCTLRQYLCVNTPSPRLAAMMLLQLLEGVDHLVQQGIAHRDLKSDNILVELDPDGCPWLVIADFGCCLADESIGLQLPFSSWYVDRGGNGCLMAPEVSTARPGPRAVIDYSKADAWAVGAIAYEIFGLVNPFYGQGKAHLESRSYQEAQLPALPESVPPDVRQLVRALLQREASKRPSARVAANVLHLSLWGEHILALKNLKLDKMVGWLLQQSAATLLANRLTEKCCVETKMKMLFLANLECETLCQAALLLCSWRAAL
UniProt O60260: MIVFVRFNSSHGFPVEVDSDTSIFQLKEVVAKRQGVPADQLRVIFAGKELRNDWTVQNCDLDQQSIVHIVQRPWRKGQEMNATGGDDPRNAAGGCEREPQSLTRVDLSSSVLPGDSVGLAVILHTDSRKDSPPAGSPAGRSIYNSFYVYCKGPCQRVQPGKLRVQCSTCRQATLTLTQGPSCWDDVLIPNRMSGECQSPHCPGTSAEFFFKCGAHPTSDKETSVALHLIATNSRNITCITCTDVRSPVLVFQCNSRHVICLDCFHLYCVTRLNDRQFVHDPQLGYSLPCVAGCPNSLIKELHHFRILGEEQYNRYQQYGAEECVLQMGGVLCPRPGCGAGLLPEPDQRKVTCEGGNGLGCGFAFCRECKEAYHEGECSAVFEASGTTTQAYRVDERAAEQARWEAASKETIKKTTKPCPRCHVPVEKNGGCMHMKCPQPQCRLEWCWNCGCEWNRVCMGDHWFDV
UniProt P02649, residues 19-317: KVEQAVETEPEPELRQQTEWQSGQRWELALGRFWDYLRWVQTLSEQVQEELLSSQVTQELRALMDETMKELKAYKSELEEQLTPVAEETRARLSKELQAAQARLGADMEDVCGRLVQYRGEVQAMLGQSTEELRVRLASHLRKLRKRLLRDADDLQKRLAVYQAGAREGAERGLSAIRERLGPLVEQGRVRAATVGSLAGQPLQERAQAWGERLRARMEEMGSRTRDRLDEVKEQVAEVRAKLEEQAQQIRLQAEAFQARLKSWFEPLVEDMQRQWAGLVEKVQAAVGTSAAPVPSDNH
UniProt P51149: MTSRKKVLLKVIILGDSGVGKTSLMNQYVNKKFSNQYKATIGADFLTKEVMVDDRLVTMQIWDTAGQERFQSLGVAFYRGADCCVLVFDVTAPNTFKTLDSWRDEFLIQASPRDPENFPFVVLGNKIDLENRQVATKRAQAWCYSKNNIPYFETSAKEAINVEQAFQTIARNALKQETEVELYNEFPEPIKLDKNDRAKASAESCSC
UniProt Q9NPP4: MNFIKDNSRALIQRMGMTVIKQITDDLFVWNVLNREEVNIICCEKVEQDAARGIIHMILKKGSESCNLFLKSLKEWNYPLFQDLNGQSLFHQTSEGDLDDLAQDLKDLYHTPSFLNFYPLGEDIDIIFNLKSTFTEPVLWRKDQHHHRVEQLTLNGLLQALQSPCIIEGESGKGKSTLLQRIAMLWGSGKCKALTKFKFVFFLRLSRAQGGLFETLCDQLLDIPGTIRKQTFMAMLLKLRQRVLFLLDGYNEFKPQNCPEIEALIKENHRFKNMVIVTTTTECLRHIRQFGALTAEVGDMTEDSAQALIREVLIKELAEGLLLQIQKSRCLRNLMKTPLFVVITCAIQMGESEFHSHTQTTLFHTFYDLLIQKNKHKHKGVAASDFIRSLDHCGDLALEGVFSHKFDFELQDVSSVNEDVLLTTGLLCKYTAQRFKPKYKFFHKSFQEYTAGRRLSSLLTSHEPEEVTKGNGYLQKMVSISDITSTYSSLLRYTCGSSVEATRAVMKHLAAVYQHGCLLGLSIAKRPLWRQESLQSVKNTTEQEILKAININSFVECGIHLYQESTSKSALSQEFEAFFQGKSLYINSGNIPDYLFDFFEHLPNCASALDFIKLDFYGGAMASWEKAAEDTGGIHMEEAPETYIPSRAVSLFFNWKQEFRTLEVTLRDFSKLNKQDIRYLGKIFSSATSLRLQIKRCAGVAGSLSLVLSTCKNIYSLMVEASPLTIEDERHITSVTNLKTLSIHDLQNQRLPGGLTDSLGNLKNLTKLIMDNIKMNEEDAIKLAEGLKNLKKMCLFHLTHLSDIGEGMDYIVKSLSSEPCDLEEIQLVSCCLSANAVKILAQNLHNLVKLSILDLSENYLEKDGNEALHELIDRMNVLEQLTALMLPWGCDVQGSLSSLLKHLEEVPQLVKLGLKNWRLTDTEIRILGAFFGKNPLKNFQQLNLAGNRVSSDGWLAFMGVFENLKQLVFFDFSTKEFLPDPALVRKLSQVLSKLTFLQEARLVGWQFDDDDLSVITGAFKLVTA

Tests used:
[1] = biological target: T1, MEKK3 (mitogen-activated protein kinase kinase kinase 3) (UniProt Q99759); assay: discussion of Example 1; co-IP in 293T cells
T1 sequence (looked up): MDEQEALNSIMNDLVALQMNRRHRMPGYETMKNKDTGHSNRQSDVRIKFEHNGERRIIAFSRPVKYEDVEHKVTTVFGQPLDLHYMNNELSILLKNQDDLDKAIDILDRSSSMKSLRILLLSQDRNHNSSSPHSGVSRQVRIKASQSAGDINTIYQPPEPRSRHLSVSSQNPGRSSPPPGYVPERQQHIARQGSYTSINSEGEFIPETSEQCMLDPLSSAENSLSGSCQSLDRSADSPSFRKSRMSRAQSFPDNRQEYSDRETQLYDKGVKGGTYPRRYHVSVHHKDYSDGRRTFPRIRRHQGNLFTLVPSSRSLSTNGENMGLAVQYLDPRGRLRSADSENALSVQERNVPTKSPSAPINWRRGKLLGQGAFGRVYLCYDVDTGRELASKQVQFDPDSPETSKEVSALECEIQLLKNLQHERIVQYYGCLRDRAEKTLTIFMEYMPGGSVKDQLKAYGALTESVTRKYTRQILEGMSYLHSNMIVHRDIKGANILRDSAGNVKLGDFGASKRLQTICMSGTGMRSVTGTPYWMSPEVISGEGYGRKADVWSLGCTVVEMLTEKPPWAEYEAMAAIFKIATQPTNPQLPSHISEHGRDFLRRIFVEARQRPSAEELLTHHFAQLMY

[2] = biological target: T1, MEKK3 (mitogen-activated protein kinase kinase kinase 3); assay: co-IP with anti-Flag beads and immunoblot; 293T cells transfected with the indicated Flag-tagged plasmid (FIG. 12B)
[3] = biological target: APP (UniProt P05067); assay: co-IP with anti-FLAG beads and western blot in transfected 293T cells (FIG. 37A)
[4] = biological target: TDP43 (UniProt Q13148); assay: co-IP with anti-Flag beads and immunoblot; 293T cells co-transfected with Flag-Beclin 2 and an HA-tagged plasmid (FIG. 35A)
[5] = biological target: PARK7 (UniProt Q99497); assay: as above
[6] = biological target: PINK1 (UniProt Q9BXM7); assay: as above
[7] = biological target: PARK2 (UniProt O60260); assay: as above
[8] = biological target: APOE (UniProt P02649); assay: as above
[9] = biological target: RAB7A (human) (UniProt P51149); assay: co-IP with anti-Flag beads and immunoblot; 293T cells co-transfected with HA-Beclin 2 and a Flag-tagged plasmid (FIG. 13C)
[10] = biological target: T2, RAB32 (human) (UniProt Q13637); assay: as above
T2 sequence (looked up): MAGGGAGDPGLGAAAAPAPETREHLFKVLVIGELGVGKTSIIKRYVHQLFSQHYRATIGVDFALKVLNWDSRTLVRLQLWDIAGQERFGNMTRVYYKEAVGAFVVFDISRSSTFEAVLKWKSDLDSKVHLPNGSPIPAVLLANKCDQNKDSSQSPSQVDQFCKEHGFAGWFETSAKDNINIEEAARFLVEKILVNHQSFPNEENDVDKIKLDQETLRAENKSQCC

[11] = biological target: NLRC4 (human) (UniProt Q9NPP4); assay: summary of Example 1; co-IP in HEK293T cells
[12] = biological target: NLRC4 (human) (UniProt Q9NPP4); assay: co-IP with anti-Flag beads and immunoblot; HEK293T cells co-transfected with HA-Beclin 2 and a Flag-tagged plasmid (FIG. 25A)
[13] = biological target: APP (UniProt P05067); assay: co-IP with anti-FLAG beads and western blot (anti-FLAG, anti-HA); 293T cells transfected with BECN2 along with APP, 36 h (FIG. 37A)
[14] = biological target: RAB7A (human) (UniProt P51149); assay: co-IP with anti-Flag beads and immunoblot; HEK293T cells co-transfected with HA-Beclin 2 and Flag-tagged SNARE or RAB proteins (FIG. 32A)
[15] = biological target: T2, RAB32 (human); assay: as above
[16] = biological target: MKK2 (UniProt P36507); assay: co-IP with anti-Flag beads and immunoblot; 293T cells co-transfected with Flag-Beclin 2 and an HA-tagged plasmid (FIG. 8A)
[17] = biological target: MKK1 (UniProt Q02750); assay: as above
[18] = biological target: T3, MKK3 (UniProt P46734); assay: as above
T3 sequence (looked up): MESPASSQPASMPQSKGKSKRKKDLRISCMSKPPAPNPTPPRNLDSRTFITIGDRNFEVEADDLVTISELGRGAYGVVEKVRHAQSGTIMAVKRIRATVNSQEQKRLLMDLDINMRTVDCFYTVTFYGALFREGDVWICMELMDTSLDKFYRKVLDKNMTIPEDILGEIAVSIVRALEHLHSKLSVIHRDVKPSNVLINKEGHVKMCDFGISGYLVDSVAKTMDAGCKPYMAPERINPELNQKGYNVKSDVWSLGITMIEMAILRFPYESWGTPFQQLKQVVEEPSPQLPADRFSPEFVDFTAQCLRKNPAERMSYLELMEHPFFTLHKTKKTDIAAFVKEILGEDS

Measured: binding

B1: ATG9A (human) (protein, UniProt Q7Z3C6 1-839, looked up)
chain: MAQFDTEYQRLEASYSDSPPGEEDLLVHVAEGSKSPWHHIENLDLFFSRVYNLHQKNGFTCMLIGEIFELMQFLFVVAFTTFLVSCVDYDILFANKMVNHSLHPTEPVKVTLPDAFLPAQVCSARIQENGSLITILVIAGVFWIHRLIKFIYNICCYWEIHSFYLHALRIPMSALPYCTWQEVQARIVQTQKEHQICIHKRELTELDIYHRILRFQNYMVALVNKSLLPLRFRLPGLGEAVFFTRGLKYNFELILFWGPGSLFLNEWSLKAEYKRGGQRLELAQRLSNRILWIGIANFLLCPLILIWQILYAFFSYAEVLKREPGALGARCWSLYGRCYLRHFNELEHELQSRLNRGYKPASKYMNCFLSPLLTLLAKNGAFFAGSILAVLIALTIYDEDVLAVEHVLTTVTLLGVTVTVCRSFIPDQHMVFCPEQLLRVILAHIHYMPDHWQGNAHRSQTRDEFAQLFQYKAVFILEELLSPIVTPLILIFCLRPRALEIIDFFRNFTVEVVGVGDTCSFAQMDVRQHGHPQWLSAGQTEASVYQQAEDGKTELSLMHFAITNPGWQPPRESTAFLGFLKEQVQRDGAAASLAQGGLLPENALFTSIQSLQSESEPLSLIANVVAGSSCRGPPLPRDLQGSRHRAEVASALRSFSPLQPGQAPTGRAHSTMTGSGVDARTASSGSSVWEGQLQSLVLSEYASTEMSLHALYMHQLHKQQAQAEPERHVWHRRESDESGESAPDEGGEGARAPQSIPRSASYPCAAPRPGAPETTALHGGFQRRYGGITDPGTVPRVPSHFSRLPLGGWAEDGQSASRHPEPVPEEGSEDELPPQVHKV
binds: [1] | [2]

B2: Beclin 2 (human, full length) (protein)
chain: MSSIRFLCQRCHQALKLSGSSESRSLPAAPAPTSGQAEPGDTREPGVTTREVTDAEEQQDGASSRSPPGDGSVSKGHANIFTLLGELGAMHMLSSIQKAAGDIFDIVSGQAVVDHPLCEECTDSLLEQLDIQLALTEADSQNYQRCLETGELATSEDEAAALRAELRDLELEEARLVQELEDVDRNNARAAADLQAAQAEAAELDQQERQHYRDYSALKRQQLELLDQLGNVENQLQYARVQRDRLKEINCFTATFEIWVEGPLGVINNFRLGRLPTVRVGWNEINTAWGQAALLLLTLANTIGLQFQRYRLIPCGNHSYLKSLTDDRTELPLFCYGGQDVFLNNKYDRAMVAFLDCMQQFKEEAEKGELGLSLPYGIQVETGLMEDVGGRGECYSIRTHLNTQELWTKALKFMLINFKWSLIWVASRYQK
not listed: [1] | [2]
binds: all other assays above
